Results reported in paper PMC5675618, “Identification and validation of FGFR2 peptide for detection of early Barrett's neoplasia” (Oncotarget, 2017).

Legend:
[1] = tested on: sections of human esophagus ex vivo; experiment: Confocal microscopy of staining of human esophageal specimens ex vivo (SQ, BE, HGD, EAC); settings: ROC curve, T/B ratio of 3.0, compared with pathology
Description: Formalin-fixed sections of human esophageal specimens were deparaffinized, and antigen retrieval was performed using standard methods. Briefly, the sections were incubated in xylene for 3 min 3X, washed with 100% ethanol for 2 min 2X, and washed with 95% ethanol for 2 min 2X. Rehydration was performed by washing in dH2O for 5 min 2X. Antigen unmasking was performed by boiling the slides in 10 mM sodium citrate buffer with 0.05% Tween at pH 6.0, and then maintaining at sub-boiling temperature for 15 min. The slides were cooled for 30 min, and the sections were washed in dH2O for 3 min 3X and in PBS for 5 min. Blocking was performed with DAKO protein blocking agent (X0909, DAKO) for 1 hour at RT. The peptides were incubated at a concentration of 1 μM for 10 min at RT. The sections were washed in PBS for 3 min 3X, and incubated with 1:1000 dilution of monoclonal anti-FGFR2 (Abcam, ab58201) overnight at 4°C.
The sections were then washed in PBS for 5 min 3X. A 1:500 dilution of AF488-labeled secondary antibody (goat anti-mouse) was added to each section and incubated for 30 min at RT. The secondary antibody solution was removed by washing with PBS for 5 min 3X. […] The mean fluorescence intensities from 3 boxes (dimensions of 30×30 μm^2) located completely within the surface epithelium of each specimen were measured. […]

[2] = tested on: sections of human esophageal squamous cell cancer (SCC); experiment: Confocal microscopy of staining of human esophageal squamous cell cancer (SCC) ex vivo; settings: ROC curve
Source text: We observed good co-localization of peptide and antibody binding on merged images, Supplementary Figure 5C. Representative histology (H&E) for SCC is shown, Supplementary Figure 5D. […] Representative histology (H&E) for normal stomach is shown, Supplementary Figure 5H.

[3] = tested on: sections of human gastric cancer; experiment: Confocal microscopy of staining of human gastric cancer ex vivo; settings: ROC curve
Source text: We observed good co-localization of peptide and antibody binding on merged images, Supplementary Figure 6C. Representative histology (H&E) for gastric cancer is shown, Supplementary Figure 6D. […] Representative histology (H&E) for normal stomach is shown, Supplementary Figure 6H.

Sequence: SRRPASFRTARE [SRR^*-Cy5.5]
- sensitivity to detect Barrett's neoplasia (HGD and EAC) [1]: 87%
- specificity to detect Barrett's neoplasia (HGD and EAC) [1]: 70%
- sensitivity for detecting SCC [2]: 94%
- specificity for detecting SCC [2]: 96%
- sensitivity for detecting gastric cancer [3]: 90%
- specificity for detecting gastric cancer [3]: 100%
